Assay results taken from PubChem BioAssay AID504444 (National Center for Advancing Translational Sciences (NCATS), 2011).
In all, about 360,000 compounds went through this assay and about 7,500 (2.1%) were called active. The inconclusive results got no clear call from the source; some entries with a clear call stand among them for comparison. Calls follow the shape of the dose curve; as a rule, active = well fitted inhibition curve with a large enough effect; inconclusive = small, poorly fitted or top-dose-only effect, or effect the other way; inactive = flat fitted curve, though single readings scatter. A potency beside an inconclusive call is a rough fit, not a confirmed value.

assay: Nrf2 qHTS screen for inhibitors; settings: A549 ARE-Fluc reporter, luciferase luminescence, 18-24 h; activity change, negative = inhibition: at 46 µM (top of the series); also: nearly all actives have a fitted effect of over 60% in size
Outline: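 Two sequential reads on A549 ARE_Fluc cells exposed to compound for 18-24 h: a CellTiter-Fluor fluorescence read for viability, then a luciferase luminescence read for Nrf2/ARE activity.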
% is scaled to controls: 0 for no effect and ±100 for the full control effect; potency is read from the fitted curve at half-maximal effect.

Q: For `O=C1NN(c2cccc(Br)c2)C(=O)/C1=C/c1ccc(-c2cc([N+](=O)[O-])ccc2O)o1`, which “activity change, negative = inhibition” value is on record?
A: The value was inactive: 2.54%.

Q: Which “activity change, negative = inhibition” value does the source give for `O=C(O)[C@@H]1CCCN(S(=O)(=O)c2cccc3cccnc23)C1` here?
A: Its value is inactive: 9.74%.

Q: With `CCOC(=O)N1CCN(CCC(=O)Nc2ccc(OC(F)(F)F)cc2)CC1` as the compound, how does the Potency read?
A: Its Potency is inconclusive: 14.6 µM [falling, partial curve, poor fit].

Q: For `CC(C)(C)C(=O)NNC(=O)C1CC1(c1ccccc1)c1ccccc1` (centres undefined), which “activity change, negative = inhibition” value is on record?
A: The value was inactive: -3.78%.

Q: With `COc1ccc(Cn2c(C(C)C)nc3sc4ccccc4c(=O)c3c2=O)cc1` as the compound, how does the Potency read?
A: Its Potency is inconclusive: 29.1 µM [falling, single point].

Q: With `CCc1ccc(C(=O)N2CCC(c3nc(-c4ccc(S(=O)(=O)N5CCCC5)cc4)no3)CC2)cc1` as the compound, how does the Potency read?
A: Its Potency is active: 11.6 µM.

Q: With `Cc1ccc(NC(=O)C2CC(=O)N(Cc3ccccc3)C2)cc1S(=O)(=O)N1CCCCCC1` (centres undefined) as the compound, how does the Potency read?
A: Its Potency is inconclusive: 32.6 µM [falling, single point].

Q: With `C/C(=N\NC(=O)c1ccc(Cl)cc1)c1ccccn1` as the compound, how does the Potency read?
A: Its Potency is active: 3.66 µM.

Q: For `CCN(c1cccc(C)c1)S(=O)(=O)c1nnc(NC(=O)c2ccco2)s1`, which Potency is on record?
A: Its Potency is inconclusive: 5.17 µM [activator, full curve, poor fit].

Q: With `Cc1cc(=O)oc2cc(OCC(=O)NC3CCCCC3)ccc12` as the compound, how does the Potency read?
A: The Potency was inconclusive: 7.31 µM [activator, partial curve, poor fit].

Q: Which Potency does the source give for `COc1ccc(CNC(=O)CCSCc2cccc(F)c2)cc1` here?
A: The Potency was inconclusive: 2.31 µM [activator, partial curve, poor fit].

Q: Which “activity change, negative = inhibition” value does the source give for `CCOc1ccc(-c2nnc(-c3snc(-c4ccc(F)cc4)c3N=CN(C)C)o2)cc1` here?
A: Its value is inactive: -8.81%.

Q: With `O=C1C(Cl)=C(NCCN2CCOCC2)C(=O)c2ccccc21` as the compound, how does the Potency read?
A: The Potency was inconclusive: 1.3 µM [falling, partial curve, poor fit].

Q: For `CCOc1ccc(NC(=O)CN(C)C(=O)CCCOc2ccc(Cl)c(C)c2)cc1OCC`, which Potency is on record?
A: Its Potency is active: 20.6 µM.

Q: With `O=S(=O)(c1ccc(Br)cc1)c1nnn2c1nc(NCc1ccc3c(c1)OCO3)c1sccc12` as the compound, how does the Potency read?
A: The Potency was inconclusive: 32.6 µM [falling, single point].

Q: Which Potency does the source give for `CCCOc1ccc(CNC(=O)CCCn2nc(C)c3sc4ccccc4c3c2=O)cc1` here?
A: Its Potency is inconclusive: 0.651 µM [activator, full curve, poor fit].

Q: Which Potency does the source give for `Cc1cccc(NC(=O)C2CCN(S(=O)(=O)c3cccc4cccnc34)CC2)c1` here?
A: The Potency was inconclusive: 20.6 µM [falling, partial curve, poor fit].

Q: For `O=C(/C=C/c1cccc([N+](=O)[O-])c1)NCCSCc1c(Cl)cccc1Cl`, which Potency is on record?
A: Its Potency is inconclusive: 16.4 µM [falling, single point].

Q: With `Cc1cc(C)c(S(=O)(=O)N2CCc3ccccc32)c(C)c1` as the compound, how does the Potency read?
A: Its Potency is inconclusive: 20.6 µM [falling, single point].

Q: Which Potency does the source give for `COc1ccc(CCN2C(=O)CC(Cc3ccc(C)cc3)C2=O)cc1OC` (centres undefined) here?
A: Its Potency is inconclusive: 4.61 µM [falling, partial curve, poor fit].

Q: Which “activity change, negative = inhibition” value does the source give for `COc1cc(CNc2nc(C)c([N+](=O)[O-])c(C)c2C#N)cc(OC)c1OC` here?
A: The value was inactive: -22.7%.

Q: Which Potency does the source give for `CCc1ccccc1NC(=O)Cc1ccc(NC(=O)N2CCCCc3ccccc32)cc1` here?
A: Its Potency is inconclusive: 20.6 µM [falling, single point].

Q: Which “activity change, negative = inhibition” value does the source give for `CCS(=O)(=O)c1ncc(Cl)c(C(=O)Nc2c(C(=O)Nc3cccc(C)c3)oc3ccccc23)n1` here?
A: The value was inactive: 24.2%.

Q: With `CCOc1ccc(CN(CCO)CCO)cc1C(=O)OC` as the compound, how does the “activity change, negative = inhibition” value read?
A: The value was inactive: 3.19%.

Q: Which Potency does the source give for `c1ccc2c(c1)CCc1c-2nc2ccccc2c1N1CCOCC1` here?
A: Its Potency is inconclusive: 29.1 µM [falling, single point].

Q: For `COc1ccc(CCNS(=O)(=O)c2ccc(S(=O)(=O)N3CCCC3)cc2)cc1OC`, which Potency is on record?
A: Its Potency is inconclusive: 7.31 µM [falling, partial curve, poor fit].

Q: For `COc1ccc(C)cc1NC(=O)c1cc2c(=O)n(Cc3cccnc3)ccc2nc1C`, which “activity change, negative = inhibition” value is on record?
A: The value was inactive: -4.8%.

Q: Which Potency does the source give for `Cc1cc(NS(=O)(=O)c2ccc(NC(=O)c3ccccc3F)cc2)no1` here?
A: The Potency was inconclusive: 14.6 µM [falling, single point].

Q: Which Potency does the source give for `C=CCn1c(=O)c2ccccc2n2c(SC(C)C(N)=O)nnc12` (centres undefined) here?
A: The Potency was inconclusive: 4.11 µM [activator, partial curve, poor fit].

Q: With `COCCNC(=O)Cn1cc(C(=O)c2cccs2)c2ccccc21` as the compound, how does the “activity change, negative = inhibition” value read?
A: The value was inactive: 3.92%.

Q: With `COc1ccccc1N1CCN(C(CNC(=O)C(=O)NCc2ccc(F)cc2)c2cccnc2)CC1` (centres undefined) as the compound, how does the Potency read?
A: The Potency was inconclusive: 29.1 µM [falling, single point].

Q: Which Potency does the source give for `COc1cc2ccccc2ccc1=NO` here?
A: Its Potency is inconclusive: 14.6 µM [activator, partial curve].

Q: Which Potency does the source give for `Nc1nonc1-n1nnc(C(=O)N/N=C/c2ccc(Br)cc2)c1CSC1=NCCS1` here?
A: Its Potency is inconclusive: 18.4 µM [falling, single point].

Q: With `CCc1cccc(NC(=O)Nc2cccs2)c1` as the compound, how does the Potency read?
A: Its Potency is inconclusive: 25.9 µM [activator, single point].

Q: Which Potency does the source give for `COc1cc2c(cc1OC)/C(=C/C(=O)c1ccc(OC)c([N+](=O)[O-])c1)NCC2` here?
A: Its Potency is inconclusive: 0.116 µM [activator, full curve, poor fit].

Q: With `Nc1cc(OC(=O)c2c(F)cccc2Cl)nn1S(=O)(=O)c1ccccc1` as the compound, how does the Potency read?
A: The Potency was inconclusive: 20.6 µM [falling, partial curve].

Q: Which Potency does the source give for `CCN(CC)CCNC(=O)c1cn(CCOC)c(=O)c2c1c1ccccc1n2C` here?
A: The Potency was “inactive”.

Q: Which “activity change, negative = inhibition” value does the source give for `COc1ccc(CNCc2c(C(=O)O)c(C)n(Cc3ccccc3C)c2C)c(OC)c1` here?
A: Its value is inactive: 15.8%.

Q: With `COc1ccc(Nc2cc(C)c3cc(NC(=O)Cc4ccc(Cl)cc4)ccc3n2)cc1` as the compound, how does the Potency read?
A: Its Potency is inconclusive: 18.4 µM [falling, single point].

Q: With `CCCCNC(=O)C1CCN(c2nc3ccccc3nc2C(F)(F)F)CC1` as the compound, how does the “activity change, negative = inhibition” value read?
A: The value was inactive: 10.2%.

Q: With `Cc1ccc(Cl)cc1N1CCN(c2ncnc3c2nc2n3CCCCC2)CC1` as the compound, how does the Potency read?
A: Its Potency is inconclusive: 14.6 µM [falling, single point].

Q: For `Cc1cccc(COCC(Cc2ccccc2)N2CCN(C(=O)c3ccc(Cl)c(Cl)c3)CCC2=O)c1` (centres undefined), which “activity change, negative = inhibition” value is on record?
A: The value was inactive: -13%.

Q: With `CCOC(=O)c1oc2ccccc2c1NC(=O)c1ccco1` as the compound, how does the “activity change, negative = inhibition” value read?
A: The value was inactive: -16.7%.

Q: Which “activity change, negative = inhibition” value does the source give for `CCOC(=O)C1=C(C)NC(C)=C(C(=O)OC)C1c1cccc([N+](=O)[O-])c1` (centres undefined) here?
A: Its value is inactive: -22.2%.

Q: For `Clc1nnc2ccc(-c3ccccc3)nn12`, which “activity change, negative = inhibition” value is on record?
A: Its value is inactive: -4.35%.

Q: For `COc1ccc(CSCC(=O)N/N=C/c2ccccc2OCc2ccccc2)cc1`, which Potency is on record?
A: The Potency was inconclusive: 23.1 µM [falling, single point].

Q: Which Potency does the source give for `Cc1ccc(OCCNC(=O)c2cc(C(=O)NCCOc3ccc(C)cc3)cc([N+](=O)[O-])c2)cc1` here?
A: Its Potency is inconclusive: 29.1 µM [falling, single point].

Q: Which Potency does the source give for `CCOC(=O)C1=C(COC(=O)CCc2ccc(F)cc2)NC(=O)NC1C` (centres undefined) here?
A: Its Potency is inconclusive: 3.66 µM [falling, single point].

Q: For `Cc1cc(Cl)ccc1NC(=S)NCc1cccs1`, which Potency is on record?
A: Its Potency is inconclusive: 16.4 µM [falling, partial curve, poor fit].

Q: With `S=C(Nc1ccccc1Oc1ccccc1)NC1CCCC1` as the compound, how does the Potency read?
A: Its Potency is inconclusive: 18.4 µM [falling, single point].

Q: For `Cc1nnc(SCC(=O)NC(=O)NCc2ccco2)s1`, which Potency is on record?
A: The Potency was inconclusive: 32.6 µM [activator, partial curve, poor fit].

Q: Which Potency does the source give for `COc1cc(C(=O)Nc2ccc(C)cc2)c2ccccc2n1` here?
A: Its Potency is inconclusive: 3.66 µM [activator, full curve].

Q: Which Potency does the source give for `O=C(NCCNC(=O)c1ccc(-c2ccc(Cl)c(Cl)c2)o1)c1cnccn1` here?
A: Its Potency is inconclusive: 32.6 µM [falling, partial curve, poor fit].

Q: For `C[n+]1ccccc1COc1ccc(C(C)(C)C)cc1`, which Potency is on record?
A: The Potency was active: 2.31 µM.

Q: Which Potency does the source give for `Cc1ccc(NC(=O)N2CCN(c3ccc(Cl)c(Cl)c3)CC2)cc1` here?
A: The Potency was inconclusive: 16.4 µM [falling, partial curve].

Q: With `O=C(Oc1ccc2ccccc2c1Cl)N1CCCCCC1` as the compound, how does the Potency read?
A: The Potency was inconclusive: 4.61 µM [activator, partial curve].

Q: For `COc1c(Br)cc2c(C)c(C(=O)O)oc2c1Br`, which “activity change, negative = inhibition” value is on record?
A: The value was inactive: 7.15%.

Q: Which Potency does the source give for `O=C1CN(C(=O)c2ccccc2F)C(c2ccc(F)cc2)c2cc(Br)ccc2N1` (centres undefined) here?
A: The Potency was inconclusive: 8.2 µM [falling, partial curve, poor fit].

Q: For `COc1ccc2nc(N3CCCC(C(=O)NCCc4ccc(OC)c(OC)c4)C3)sc2c1` (centres undefined), which Potency is on record?
A: The Potency was inconclusive: 2.06 µM [activator, partial curve].

Q: With `Cc1cc(NC(=O)CSc2ccc3nnc(-c4ccc(Cl)cc4)n3n2)no1` as the compound, how does the “activity change, negative = inhibition” value read?
A: The value was inactive: -9.93%.

Q: For `Cc1nc(SCc2ccccc2F)c2oc3ccccc3c2n1`, which Potency is on record?
A: Its Potency is inconclusive: 29.1 µM [activator, single point].

Q: With `CCc1nnc(SCC(=O)Nc2cc(OC)ccc2OC)nc1CC` as the compound, how does the Potency read?
A: The Potency was inconclusive: 7.31 µM [activator, partial curve, poor fit].

Q: With `O=C(O)c1cccc(NC(=S)NC(=O)c2cncc(Br)c2)c1` as the compound, how does the Potency read?
A: The Potency was inconclusive: 29.1 µM [activator, single point].

Q: For `CCN(Cc1ccccc1)C(=O)c1cc2c(=O)[nH]c3ccc(C)cc3c2s1`, which Potency is on record?
A: The Potency was inconclusive: 14.6 µM [falling, partial curve, poor fit].

Q: With `CC1CCCN(C(=O)COC(=O)C2=COCCO2)C1` (centres undefined) as the compound, how does the Potency read?
A: The Potency was inconclusive: 25.9 µM [activator, single point].

Q: For `CCN(CC)S(=O)(=O)c1cc(NC(=O)CSc2nnc(N)s2)ccc1C`, which “activity change, negative = inhibition” value is on record?
A: Its value is inactive: 3.32%.

Q: With `CCOC(=O)c1ccc2[nH]c(C)c(CCC(C)=O)c(=O)c2c1` as the compound, how does the Potency read?
A: The Potency was inconclusive: 32.6 µM [activator, single point].

Q: For `Cc1ccc(F)cc1CNC(=O)c1cc(COc2ccc3ncccc3c2)on1`, which Potency is on record?
A: The Potency was inconclusive: 18.4 µM [falling, partial curve, poor fit].

Q: For `Cc1cccc(OCCn2c(NC(=O)c3ccco3)nc3ccccc32)c1`, which Potency is on record?
A: Its Potency is active: 18.4 µM.
